Experimental data as given in article PMC8187452.
Results are given in words; binding and its absence hold for the method and conditions named. In cells and extracts the contact can be indirect. Here binding means that the protein was enriched with, or labelled near, the bait; the list need not be complete.

Chains of the proteins cited; added tags and fusions are not shown.
UniProt O80982: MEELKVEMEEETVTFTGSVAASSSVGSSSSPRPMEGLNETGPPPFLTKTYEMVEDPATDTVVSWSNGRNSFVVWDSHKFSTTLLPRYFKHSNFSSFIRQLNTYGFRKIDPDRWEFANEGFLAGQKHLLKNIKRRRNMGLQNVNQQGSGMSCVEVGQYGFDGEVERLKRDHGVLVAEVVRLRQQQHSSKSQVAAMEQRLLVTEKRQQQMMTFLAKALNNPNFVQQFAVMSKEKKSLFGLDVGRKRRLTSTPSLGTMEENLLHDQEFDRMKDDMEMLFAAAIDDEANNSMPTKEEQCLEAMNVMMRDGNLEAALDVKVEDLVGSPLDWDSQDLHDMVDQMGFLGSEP
UniProt Q9SV12: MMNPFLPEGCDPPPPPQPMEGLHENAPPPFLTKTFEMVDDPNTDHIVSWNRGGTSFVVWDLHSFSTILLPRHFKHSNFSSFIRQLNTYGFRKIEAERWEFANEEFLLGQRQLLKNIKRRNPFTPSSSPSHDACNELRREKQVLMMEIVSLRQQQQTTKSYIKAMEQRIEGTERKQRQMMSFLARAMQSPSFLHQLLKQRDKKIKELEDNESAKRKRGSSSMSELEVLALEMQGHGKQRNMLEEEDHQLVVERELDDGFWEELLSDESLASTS
UniProt P41151: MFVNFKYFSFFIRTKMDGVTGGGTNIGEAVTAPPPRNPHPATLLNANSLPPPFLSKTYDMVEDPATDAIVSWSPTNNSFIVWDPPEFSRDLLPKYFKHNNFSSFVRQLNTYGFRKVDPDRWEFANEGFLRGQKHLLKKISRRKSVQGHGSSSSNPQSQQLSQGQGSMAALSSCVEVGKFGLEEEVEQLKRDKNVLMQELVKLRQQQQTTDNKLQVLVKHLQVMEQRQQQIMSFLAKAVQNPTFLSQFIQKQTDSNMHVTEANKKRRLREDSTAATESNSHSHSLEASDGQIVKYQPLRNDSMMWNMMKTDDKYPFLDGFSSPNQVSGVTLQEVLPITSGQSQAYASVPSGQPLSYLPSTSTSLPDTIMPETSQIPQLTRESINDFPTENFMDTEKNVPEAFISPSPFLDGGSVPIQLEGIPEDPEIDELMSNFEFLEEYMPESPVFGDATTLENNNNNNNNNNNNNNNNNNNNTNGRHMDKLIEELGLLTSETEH
UniProt O81821: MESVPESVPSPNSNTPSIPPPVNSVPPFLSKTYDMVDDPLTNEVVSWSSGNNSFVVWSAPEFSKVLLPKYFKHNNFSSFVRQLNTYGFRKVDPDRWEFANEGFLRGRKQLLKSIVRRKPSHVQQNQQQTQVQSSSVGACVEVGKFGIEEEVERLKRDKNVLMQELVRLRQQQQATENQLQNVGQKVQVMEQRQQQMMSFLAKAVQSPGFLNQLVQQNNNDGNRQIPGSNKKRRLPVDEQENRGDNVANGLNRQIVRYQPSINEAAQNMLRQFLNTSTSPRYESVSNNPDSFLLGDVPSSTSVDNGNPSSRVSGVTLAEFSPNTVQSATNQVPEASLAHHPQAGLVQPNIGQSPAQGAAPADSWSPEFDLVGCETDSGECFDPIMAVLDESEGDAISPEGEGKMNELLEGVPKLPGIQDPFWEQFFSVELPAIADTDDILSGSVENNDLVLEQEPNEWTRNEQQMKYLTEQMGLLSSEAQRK
UniProt Q9LQM7: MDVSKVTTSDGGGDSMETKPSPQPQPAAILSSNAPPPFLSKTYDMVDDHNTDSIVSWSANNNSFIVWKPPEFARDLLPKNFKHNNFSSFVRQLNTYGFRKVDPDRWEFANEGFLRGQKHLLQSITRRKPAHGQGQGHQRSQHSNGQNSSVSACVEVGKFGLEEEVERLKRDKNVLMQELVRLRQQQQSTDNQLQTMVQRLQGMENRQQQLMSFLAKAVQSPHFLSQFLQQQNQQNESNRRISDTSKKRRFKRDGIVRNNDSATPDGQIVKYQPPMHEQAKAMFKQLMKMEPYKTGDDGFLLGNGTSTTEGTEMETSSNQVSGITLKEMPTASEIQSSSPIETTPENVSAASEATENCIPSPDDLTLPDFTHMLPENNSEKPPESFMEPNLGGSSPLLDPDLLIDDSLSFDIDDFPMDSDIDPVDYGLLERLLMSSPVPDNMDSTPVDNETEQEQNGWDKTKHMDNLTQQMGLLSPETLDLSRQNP
UniProt Q9LUH8: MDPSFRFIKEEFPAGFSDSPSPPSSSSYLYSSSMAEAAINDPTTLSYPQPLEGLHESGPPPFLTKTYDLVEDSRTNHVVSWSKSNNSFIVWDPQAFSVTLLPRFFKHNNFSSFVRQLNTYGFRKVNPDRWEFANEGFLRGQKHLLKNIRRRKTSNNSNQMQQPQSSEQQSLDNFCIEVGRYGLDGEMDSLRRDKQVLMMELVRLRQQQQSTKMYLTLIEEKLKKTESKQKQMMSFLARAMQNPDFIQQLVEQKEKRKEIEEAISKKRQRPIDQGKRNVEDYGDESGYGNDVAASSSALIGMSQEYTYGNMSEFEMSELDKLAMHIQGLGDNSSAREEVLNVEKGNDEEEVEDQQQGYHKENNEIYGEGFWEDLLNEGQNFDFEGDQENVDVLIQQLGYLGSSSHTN

Experiments:
[1] = target: 3xFLAG-HSFA3 (FORGETTER3/HEAT SHOCK …ON FACTOR A3) expressed from pHSFA3::FLAG-HSFA3 (A. thaliana) (UniProt Q8GYY1); assay: affinity purification with mass spectrometry; Co-IP/MS of FLAG-HSFA3 in the hsfa2 mutant background, without HS or 4 h after ACC; Trypsin/Lys-C digest, Q Exactive HF
[2] = target: HSFA2-YFP expressed from pHSFA2::HSFA2-YFP (A. thaliana) (UniProt O80982); assay: affinity purification with mass spectrometry; HSFA2-YFP complexes isolated from seedlings under no-HS conditions, 45 min and 3 h after 1 h HS at 37 °C; trypsin digest, Q Exactive Plus
[3] = target: 3xFLAG-HSFA3 (FORGETTER3/HEAT SHOCK …ON FACTOR A3) expressed from pHSFA3::FLAG-HSFA3 (A. thaliana) (UniProt Q8GYY1); assay: affinity purification with mass spectrometry; FLAG-HSFA3 precipitated from the complementing pHSFA3::FLAG-HSFA3 line under no-HS conditions, 4 h after HS (1 h 37 °C) or 4 h after ACC; anti-DYKDDDDK beads; trypsin digest, Q Exactive Plus
[4] = target: HSFA2-YFP expressed from pHSFA2::HSFA2-YFP (A. thaliana) (UniProt O80982); assay: affinity purification with mass spectrometry; Co-IP/MS of HSFA2-YFP in the hsfa3 mutant background, without HS or 4 h after ACC; Trypsin/Lys-C digest, Q Exactive HF

binding [1]	binding [2]	binding [3]	binding [4]	Substance
–	binds	–	–	HSFA3 (endogenous) (from UniProt Q8GYY1 1-412)
–	binds	binds	–	HSFA7A (endogenous) (from UniProt Q9SV12 1-272)

The remaining lines, values behind:

Substance	binding [1]	binding [2]	binding [3]	binding [4]
HSFA1A (endogenous) (from UniProt P41151 1-495)	binds	binds	binds	binds
HSFA1B (endogenous) (from UniProt O81821 1-481)	binds	binds	binds	binds
HSFA1D (endogenous) (from UniProt Q9LQM7 1-485)	binds	binds	binds	binds
HSFA6B (endogenous) (from UniProt Q9LUH8 1-406)	–	binds	binds	–
